# Measurements taken from PubChem BioAssay AID1671190 (National Center for Advancing Translational Sciences (NCATS), 2021).
# Amino acid sequences for entries named in this document (tags omitted). A change or cut given only in a name is not applied to a line headed by its entry.
# UniProt P18054: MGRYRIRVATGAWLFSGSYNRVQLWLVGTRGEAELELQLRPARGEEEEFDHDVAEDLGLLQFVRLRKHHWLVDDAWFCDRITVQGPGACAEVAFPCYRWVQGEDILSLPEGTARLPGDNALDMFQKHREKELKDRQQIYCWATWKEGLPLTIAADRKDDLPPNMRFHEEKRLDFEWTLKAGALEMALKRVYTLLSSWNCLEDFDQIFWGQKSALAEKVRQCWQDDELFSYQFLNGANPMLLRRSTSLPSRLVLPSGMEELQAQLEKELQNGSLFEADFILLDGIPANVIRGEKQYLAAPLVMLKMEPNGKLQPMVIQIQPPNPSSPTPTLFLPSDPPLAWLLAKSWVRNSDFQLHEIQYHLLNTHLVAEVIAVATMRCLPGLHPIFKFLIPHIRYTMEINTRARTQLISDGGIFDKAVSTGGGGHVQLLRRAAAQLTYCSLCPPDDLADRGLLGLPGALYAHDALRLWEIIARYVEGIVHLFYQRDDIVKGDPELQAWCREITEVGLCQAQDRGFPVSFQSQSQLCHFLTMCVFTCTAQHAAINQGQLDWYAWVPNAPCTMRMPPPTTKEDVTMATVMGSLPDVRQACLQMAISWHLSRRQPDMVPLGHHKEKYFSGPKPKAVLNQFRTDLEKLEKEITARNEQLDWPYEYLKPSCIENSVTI
# About 6,100 (1.1%) of roughly 580,000 compounds were called active. This list was built around the results that the source calls inconclusive (neither active nor inactive); the mix of calls is not that of the screen. The call rests on the fitted dose curve; in most records, active means well fitted inhibition curve with a large enough effect; inconclusive means small, poorly fitted or top-dose-only effect, or another doubt; inactive means no such curve, though single readings can be large or run the other way. A potency beside an inconclusive call is a rough fit, not a confirmed value.
# Target: Polyunsaturated fatty acid lipoxygenase ALOX12 (Homo sapiens) (UniProt P18054)
# Assay: Primary qHTS assay for inhibitors of human arachidonate 12S-lipoxygenase (ALOX12): Round 2
# Conditions: purified 12hLO, xylenol orange hydroperoxide absorbance; series mostly up to 108 µM
# Outline: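 Purified human 12hLO (150 nM final) in 25 mM Hepes, 0.01% Triton X-100, pH 7.0 was preincubated 15 min at room temperature with compound. Then 40 uM arachidonic acid was added, 30 min. Hydroperoxide was read by Fe-XO absorbance ratio 573/405 nm.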
# Potency means the concentration at half of the fitted maximal effect.
row,Compound,Potency
1,Cc1cc(C)nc(SCc2ccc(Cl)cc2)n1,inactive
2,CCc1ccccc1N(CC(=O)N/N=C/c1ccc(OC(=O)OC)c(OC)c1)S(C)(=O)=O,inactive
3,COc1cccc(OCc2cc(C(=O)NC(CO)CO)n[nH]2)c1,"inconclusive: 56.2 µM [inhibitor, partial curve, poor fit]"
4,CC(C)N1C(=O)[C@@H]2[C@@H](CCN2C(=O)CSCC(=O)O)N(Cc2cccc(F)c2)C1=O,active: 35.5 µM
5,CC(C)[C@H](O)C(=O)N[C@@H](C)C(=O)N[C@@H]1C(=O)N(C)CCc2ccccc21,"inconclusive: 34.3 µM [inhibitor, partial curve, poor fit]"
6,Cc1ccc(C2=NC3(CCN(C(=O)c4sccc4C)CC3)ON2)cc1,inactive
7,C=CCSc1ncccc1C(=O)O,inactive
8,CSc1n[nH]c(-c2cccs2)n1,"inconclusive: 89.1 µM [inhibitor, partial curve, poor fit]"
9,O=C(COC(=O)C1c2ccccc2Oc2ccccc21)NC1CCS(=O)(=O)C1 (stereo not given),inactive
10,Cc1c(OCC(=O)OC(C)(C)C)ccc2c3c(c(=O)oc12)CCC3,"inconclusive: 112 µM [inhibitor, single point]"
11,O=C(O)COCC(=O)N1CCOCC1,"inconclusive: 15.8 µM [inhibitor, full curve]"
12,Cc1cccc(C)c1OCC(=O)N(Cc1cccs1)C1CCS(=O)(=O)C1 (stereo not given),"inconclusive: 100 µM [inhibitor, single point]"
13,Cc1csc(NC(=O)c2csc3ccccc23)n1,inactive
14,CN(C)C(=O)C(Cl)c1ccccc1 (stereo not given),"inconclusive: 39.8 µM [inhibitor, partial curve, poor fit]"
15,CS(=O)(=O)N1CCN(C(C(=O)O)c2c[nH]c3ccc(NC(=O)CCC(=O)O)cc23)CC1 (stereo not given),"inconclusive: 39.8 µM [inhibitor, partial curve, poor fit]"
16,Cc1cc(C(=O)NC[C@@H]2CC[C@H]3C[C@@H]2C3(C)C)ccc1Cl,"inconclusive: 112 µM [inhibitor, single point]"
17,CC(C)C[C@H]1COCCS(=O)(=O)N1Cc1cccc(Cl)c1,inactive
18,N#Cc1ccccc1NC(=O)COC(=O)/C=C/c1cn(-c2ccccc2)nc1-c1ccc(Cl)cc1,inactive
19,CC(C)Nc1nc(C(=O)Nc2ccccc2O)cs1,"inconclusive: 50.1 µM [inhibitor, partial curve, poor fit]"
20,O=C(Cc1cccc(O)c1)N1CC(CNc2ccccc2)C2(C1)CN(c1ccccc1)C2 (stereo not given),"inconclusive: 100 µM [inhibitor, partial curve, poor fit]"

# Three compounds already listed, arranged by length of the SMILES, low to high:
row,Compound,Potency
17,CC(C)C[C@H]1COCCS(=O)(=O)N1Cc1cccc(Cl)c1,inactive
6,Cc1ccc(C2=NC3(CCN(C(=O)c4sccc4C)CC3)ON2)cc1,inactive
5,CC(C)[C@H](O)C(=O)N[C@@H](C)C(=O)N[C@@H]1C(=O)N(C)CCc2ccccc21,"inconclusive: 34.3 µM [inhibitor, partial curve, poor fit]"
